# Results deposited as PubChem BioAssay AID652272 (Drosophila RNAi Screening Center, 2013).
# Aim: 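Genes whose knock-down decreases or increases Hedgehog reporter output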 (primary screen)
# Cell system: Drosophila clone 8 (Cl8) cells
# Reagents: long dsRNA against Drosophila genes
# Measurement: 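Plate reader light from a firefly reporter under a ptc promoter fragment that responds to Hedgehog, with Renilla light as transfection reference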
# Reading the numbers: firefly Hh reporter signal: higher = more ptc reporter light; Renilla reference signal: higher = more Renilla control light
# Active means: 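Hit when the z-score averaged over two replicates is under -2 or over +3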
# Calls: active = hit: reporter lowered or raised; inactive = not a hit
# In all, the deposit lists about 21,000 reagents; this is an unselected part of those that have a named target and a result. Over the whole deposit, 503 (2.4%) are marked active. 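Raw plate light values, not normalised; calls rest on replicate z-scores that were not deposited; hits include reporter decreases as well as increases.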 A plus sign joins genes that one reagent is predicted to hit. No sequences are given here. Not given: the amount of reagent, the time to read-out.
The first 2 entries, to show the layout:
target gene,dsRNA,"firefly Hh reporter signal, replicate 1","firefly Hh reporter signal, replicate 2","Renilla reference signal, replicate 1","Renilla reference signal, replicate 2",Call
CG4962,DRSC10464,1.18e5,,2481,3355,inactive
CG14763,DRSC06497,1.15e5,67120,3109,5538,inactive

The listing, repeating the preview:
target gene,dsRNA,"firefly Hh reporter signal, replicate 1","firefly Hh reporter signal, replicate 2","Renilla reference signal, replicate 1","Renilla reference signal, replicate 2",Call
CG4962,DRSC10464,1.18e5,,2481,3355,inactive
CG14763,DRSC06497,1.15e5,67120,3109,5538,inactive
CG17258,DRSC00495,1.51e5,85184,1991,7371,inactive
CG15824,DRSC00473,1.67e5,1.08e5,3632,2756,inactive
Egm,DRSC07319,1.73e5,1.08e5,6433,4180,inactive
Mettl3,DRSC15921,5.27e5,1.12e5,25990,2836,inactive
dikar,DRSC09699,36163,56109,1664,1986,inactive
CG32281,DRSC08236,78928,65122,3878,2839,inactive
Ppat-Dpck,DRSC09744,33639,33482,3984,2013,inactive
CG1607,DRSC15130,82048,72771,2262,2146,inactive
Ugt36A1 + CG15418,DRSC00432,1.84e5,78555,4536,7069,inactive
Agpat3,DRSC10445,98818,53232,3792,1904,inactive
CG31231,DRSC13308,56033,1.73e5,8681,3600,inactive
Cyfip,DRSC15679,1.02e5,71574,4277,3081,inactive
Got1,DRSC07177,1.46e5,95212,5430,3498,inactive
CG42269,DRSC10670,46337,53512,3837,3485,inactive
CG42269,DRSC10672,45158,40601,4425,3600,inactive
CG8157,DRSC07085,1.31e5,93792,2506,7576,inactive
CG8519,DRSC10985,43736,47906,5616,3804,inactive
CG9593,DRSC16508,86372,78679,2432,2082,inactive
Pink1,DRSC18361,93656,59737,2500,1529,inactive
Sec10,DRSC17053,1.22e5,72139,4674,2646,inactive
CG12171,DRSC12200,59968,1.05e5,2859,3154,inactive
